Consider 35 targets from the supplement of paper PMC12819154, “High-throughput peptide-centric local stability assay extends protein–ligand identification to membrane proteins, tissues and bacteria” (Nature Structural & Molecular Biology, 2025).

The list shows a part of the results. Small differences around the control level are noise.

Compound in this assay: CN[C@@H]1C[C@H]2O[C@@](C)([C@@H]1OC)n1c3ccccc3c3c4c(c5c6ccccc6n2c5c31)C(=O)NC4 [staurosporine]
Put plainly: log2 fold change of tryptic peptide abundance, ligand vs vehicle (limited proteolysis) (log2 ratio); higher = more trypsin-susceptible (destabilized). Particulars: ligand concentration: 20 uM; sample: mouse liver crude lysate; replicate design: treated separately.
As for “UniProt Q9D8X0 (peptide sequence: SHEAEAEQAEPR, peptide start residue: 47)”, the log2 fold change came to 0.187. As for “UniProt Q9DAC7 (peptide sequence: LGYFDEALEDFKK, peptide start residue: 102)”, the figure is 0.12; as for “UniProt Q9D8Z2 (peptide sequence: FLKGDGSGDPCTDLFKR, peptide start residue: 27)”, 0.101. As for “UniProt Q9D7H3 (peptide sequence: AFVAGVLPLKVAK, peptide start residue: 196)”, the figure is -0.443. As for “UniProt Q9D8U7 (peptide sequence: RTTDEEGWDLHESTR, peptide start residue: 180)”, the figure is 0.44. Turning to “UniProt Q9D620 (peptide sequence: GSESEPLPTVSEKEK, peptide start residue: 449)”, the log2 fold change is -0.231. The same measure for “UniProt Q9D1J1 (peptide sequence: ARPTSAGGLSLLPPPPGGK, peptide start residue: 177)”: 0.135. As for “UniProt Q9D8T2 (peptide sequence: QQILVNIGK, peptide start residue: 312)”, the figure is -0.216; as for “UniProt Q9D1R9 (peptide sequence: TPGNRIVYLYTKK, peptide start residue: 25)”, -0.814. Consider “UniProt Q9D8X1 (peptide sequence: KQAWISSGK, peptide start residue: 10)”, for which the log2 fold change is -0.0853. Consider “UniProt Q9D6Z0 (peptide sequence: RYEYDHWDAAIHGFR, peptide start residue: 60)”, for which the log2 fold change worked out at 0.487. As for “UniProt Q9D8N6 (peptide sequence: NQLRYSESMK, peptide start residue: 228)”, the figure is -0.162; as for “UniProt Q9D903 (peptide sequence: VQTEVLQKR, peptide start residue: 180)”, -0.526. Turning to “UniProt Q9D1E6 (peptide sequence: SKLGPYNEELR, peptide start residue: 128)”, the log2 fold change stood at 0.151. The same measure for “UniProt Q9D304 (peptide sequence: TCVDPWLLEHR, peptide start residue: 302)”: -0.0736; for “UniProt Q9D8C8 (peptide sequence: TRCALEETVAEGLNVPR, peptide start residue: 147)”: -0.873; for “UniProt Q9D1E8 (peptide sequence: ATHVAFDSMK, peptide start residue: 210)”: 0.556.

In the case of “UniProt Q9D4V7 (peptide sequence: AVFYNSVNGIILVHDLTNKK, peptide start residue: 82)”, the log2 fold change is -0.344. As for “UniProt Q9D6N5 (peptide sequence: VAAAVPVIISR, peptide start residue: 30)”, the figure is 0.149; as for “UniProt Q9D855 (peptide sequence: LGLMRDDTLHETEDVKEAIR, peptide start residue: 30)”, -0.403.

Take “UniProt Q9D939 (peptide sequence: ANEMPAPR, peptide start residue: 97)”: the log2 fold change came out at 0.395. The same measure for “UniProt Q9D7M1 (peptide sequence: LLLWAQNELDQKK, peptide start residue: 198)”: -0.0924; for “UniProt Q9D554 (peptide sequence: IQTDFEK, peptide start residue: 213)”: -0.18. The same measure for “UniProt Q9D6H5 (peptide sequence: EIFLPATPSYK, peptide start residue: 329)”: 0.0628. The same measure for “UniProt Q9D2Y6 (peptide sequence: CDPCSHELR, peptide start residue: 25)”: -0.0424; for “UniProt Q9D2G2 (peptide sequence: VEGGTPLFTLR, peptide start residue: 135)”: -0.56. Take “UniProt Q9D8N1 (peptide sequence: VTAEVTTHGTNTSTPTTR, peptide start residue: 81)”: the log2 fold change was -0.119. The same measure for “UniProt Q9D7H4 (peptide sequence: SGDQLAEER, peptide start residue: 47)”: 0.0589. As for “UniProt Q9D9Z5 (peptide sequence: KRDQEQVEAEGESSAPPR, peptide start residue: 71)”, the figure is 0.349; as for “UniProt Q9DAM5 (peptide sequence: YHGIFQAAK, peptide start residue: 59)”, 0.0576.

In the case of “UniProt Q9D6S7 (peptide sequence: VALNQIGQISMK, peptide start residue: 128)”, the log2 fold change stood at 0.114.

Turning to “UniProt Q9D2Y4 (peptide sequence: KFDSPNILR, peptide start residue: 245)”, the log2 fold change came to 0.351. As for “UniProt Q9D162 (peptide sequence: DLEAVTSQLYR, peptide start residue: 28)”, the figure is -0.309; as for “UniProt Q9D6T0 (peptide sequence: FTQLDDSVDRVGLITR, peptide start residue: 202)”, -0.749.

In the case of “UniProt Q9D404 (peptide sequence: NIPCSVAAYVPR, peptide start residue: 83)”, the log2 fold change worked out at 0.199.
